From publication PMC12694794
These are yes or no findings as the source states them, for the method shown.

Protein sequences, listed by entry. Tags and fused reporters are not part of them.
UniProt Q18B12: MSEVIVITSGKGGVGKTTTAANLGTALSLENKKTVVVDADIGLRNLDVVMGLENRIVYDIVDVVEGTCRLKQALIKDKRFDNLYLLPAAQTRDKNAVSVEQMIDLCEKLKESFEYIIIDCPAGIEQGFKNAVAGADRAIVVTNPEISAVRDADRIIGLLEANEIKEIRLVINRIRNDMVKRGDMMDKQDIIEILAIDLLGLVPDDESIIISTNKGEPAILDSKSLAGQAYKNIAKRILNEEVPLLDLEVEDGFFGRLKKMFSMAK

Biological target: MinD fused to the T18 or T25 fragment of CyaA (bacterial two-hybrid) (C. difficile R20291) (UniProt Q18B12)
Assay: two-hybrid; bacterial two-hybrid: N- and C-terminal fusions to the CyaA T18 and T25 fragments, pairs co-transformed into E. coli BTH101, spotted on LB-agar with X-gal and 0.5 mM IPTG, 24-36 hours at 30°C

MinD fused to the T18 or T25 fragment of CyaA (bacterial two-hybrid) (from UniProt Q18B12 1-265)
binding: no binding
